These are yes or no findings as the source states them, for the method shown. Some entries that bind do so weakly or less than the wild type.
Experiments:
[1] = molecular target: PPE protein 'Mutant F' (MutF, SEQ ID NO: 5) (porcine) (UniProt P00772); assay: cation exchange and size exclusion chromatography of the 1:2 mix; fractions tested for activity, protein concentration and A1AT protection
[2] = molecular target: PPE protein 'Mutant F' (MutF, SEQ ID NO: 5) (porcine) (UniProt P00772); assay: activity and A1AT protection in lysates of treated tumor cells
[3] = molecular target: PPE protein 'Mutant F' (MutF, SEQ ID NO: 5) (porcine) (UniProt P00772); assay: enzyme activity after freeze/thaw cycles (figure legend)
[4] = molecular target: PPE protein 'Mutant F' (MutF, SEQ ID NO: 5) (porcine) (UniProt P00772); assay: enzyme activity and A1AT protection over a pH range (figure legend)

By UniProt entry, the sequences of proteins in these tests, tags left out. Where a name states a change or a piece, a line headed by the entry shows the natural chain unless it says otherwise.
UniProt P00772: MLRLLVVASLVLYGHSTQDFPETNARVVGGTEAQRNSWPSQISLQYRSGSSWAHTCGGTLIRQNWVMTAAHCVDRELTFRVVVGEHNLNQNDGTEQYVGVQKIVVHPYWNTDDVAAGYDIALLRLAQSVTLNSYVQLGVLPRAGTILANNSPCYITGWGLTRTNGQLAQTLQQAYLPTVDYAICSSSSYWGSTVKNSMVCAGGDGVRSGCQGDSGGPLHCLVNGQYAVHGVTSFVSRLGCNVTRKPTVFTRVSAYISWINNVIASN

Measured: binding

B1: alpha-2-macroglobulin (A2M) (protein)
chain: SVSGKPQYMVLVPSLLHTETTEKGCVLLSYLNETVTVSASLESVRGNRSLFTDLEAENDVLHCVAFAVPKSSSNEEVMFLTVQVKGPTQEFKKRTTVMVKNEDSLVFVQTDKSIYKPGQTVKFRVVSMDENFHPLNELIPLVYIQDPKGNRIAQWQSFQLEGGLKQFSFPLSSEPFQGSYKVVVQKKSGGRTEHPFTVEEFVLPKFEVQVTVPKIITILEEEMNVSVCGLYTYGKPVPGHVTVSICRKYSDASDCHGEDSQAFCEKFSGQLNSHGCFYQQVKTKVFQLKRKEYEMKLHTEAQIQEEGTVVELTGRQSSEITRTITKLSFVKVDSHFRQGIPFFGQVRLVDGKGVPIPNKVIFIRGNEANYYSNATTDEHGLVQFSINTTNVMGTSLTVRVNYKDRSPCYGYQWVSEEHEEAHHTAYLVFSPSKSFVHLEPMSHELPCGHTQTVQAHYILNGGTLLGLKKLSFYYLIMAKGGIVRTGTHGLLVKQEDMKGHFSISIPVKSDIAPVARLLIYAVLPTGDVIGDSAKYDVENCLANKVDLSFSPSQSLPASHAHLRVTAAPQSVCALRAVDQSVLLMKPDAELSASSVYNLLPEKDLTGFPGPLNDQDNEDCINRHNVYINGITYTPVSSTNEKDMYSFLEDMGLKAFTNSKIRKPKMCPQLQQYEMHGPEGLRVGFYESDVMGRGHARLVHVEEPHTETVRKYFPETWIWDLVVVNSAGVAEVGVTVPDTITEWKAGAFCLSEDAGLGISSTASLRAFQPFFVELTMPYSVIRGEAFTLKATVLNYLPKCIRVSVQLEASPAFLAVPVEKEQAPHCICANGRQTVSWAVTPKSLGNVNFTVSAEALESQELCGTEVPSVPEHGRKDTVIKPLLVEPEGLEKETTFNSLLCPSGGEVSEELSLKLPPNVVEESARASVSVLGDILGSAMQNTQNLLQMPYGCGEQNMVLFAPNIYVLDYLNETQQLTPEIKSKAIGYLNTGYQRQLNYKHYDGSYSTFGERYGRNQGNTWLTAFVLKTFAQARAYIFIDEAHITQALIWLSQRQKDNGCFRSSGSLLNNAIKGGVEDEVTLSAYITIALLEIPLTVTHPVVRNALFCLESAWKTAQEGDHGSHVYTKALLAYAFALAGNQDKRKEVLKSLNEEAVKKDNSVHWERPQKPKAPVGHFYEPQAPSAEVEMTSYVLLAYLTAQPAPTSEDLTSATNIVKWITKQQNAQGGFSSTQDTVVALHALSKYGAATFTRTGKAAQVTIQSSGTFSSKFQVDNNNRLLLQQVSLPELPGEYSMKVTGEGCVYLQTSLKYNILPEKEEFPFALGVQTLPQTCDEPKAHTSFQISLSVSYTGSRSASNMAIVDVKMVSGFIPLKPTVKMLERSNHVSRTEVSSNHVLIYLDKVSNQTLSLFFTVLQDVPVRDLKPAIVKVYDYYETDEFAIAEYNAPCSKDLGNA
binds: all assays above

Reference: patent publication US20260232818A1, “PHARMACEUTICAL COMPOSITIONS COMPRISING PROTEIN COMPLEXES” (Onchilles Pharma, Inc., priority 2023, published 2026)
